Assay results taken from EP0496162A2, “Peptide inhibitors of RAS-GAP interaction” (MERCK & CO. INC., priority 1990, dated 1992).
At least one peptide structure holds a part that was inferred or is arguable (an end, a ring closure or a residue). Some entries repeat one wording, which the source may state once for all of them. For some assays here: For at least one compound, name, drawing or mass did not settle the structure. No end group written: not given here.

Legend:
[1] = molecular target: T1, intrinsic Ras GTPase activity (Homo sapiens, UniProt P01112); assay: Intrinsic Ras GTPase activity assayed in the absence of GAP; format: biochemical
T1 construct: made in house; host or cells: E. coli RRllaci^q

[2] = molecular target: T2, Ras-GAP interaction (Bos taurus, UniProt P09851); assay: Ras-GAP interaction inhibition assay (GAP-stimulated Ras GTPase, charcoal adsorption); format: biochemical, bovine
T2 construct: made in house; host or cells: GAP: E. coli JM109 (plasmid pYO); Ha-Ras: E. coli RRllaci^q (plasmid pRas[Gly12 Ala59])
T2 sequence (P09851 1-1044): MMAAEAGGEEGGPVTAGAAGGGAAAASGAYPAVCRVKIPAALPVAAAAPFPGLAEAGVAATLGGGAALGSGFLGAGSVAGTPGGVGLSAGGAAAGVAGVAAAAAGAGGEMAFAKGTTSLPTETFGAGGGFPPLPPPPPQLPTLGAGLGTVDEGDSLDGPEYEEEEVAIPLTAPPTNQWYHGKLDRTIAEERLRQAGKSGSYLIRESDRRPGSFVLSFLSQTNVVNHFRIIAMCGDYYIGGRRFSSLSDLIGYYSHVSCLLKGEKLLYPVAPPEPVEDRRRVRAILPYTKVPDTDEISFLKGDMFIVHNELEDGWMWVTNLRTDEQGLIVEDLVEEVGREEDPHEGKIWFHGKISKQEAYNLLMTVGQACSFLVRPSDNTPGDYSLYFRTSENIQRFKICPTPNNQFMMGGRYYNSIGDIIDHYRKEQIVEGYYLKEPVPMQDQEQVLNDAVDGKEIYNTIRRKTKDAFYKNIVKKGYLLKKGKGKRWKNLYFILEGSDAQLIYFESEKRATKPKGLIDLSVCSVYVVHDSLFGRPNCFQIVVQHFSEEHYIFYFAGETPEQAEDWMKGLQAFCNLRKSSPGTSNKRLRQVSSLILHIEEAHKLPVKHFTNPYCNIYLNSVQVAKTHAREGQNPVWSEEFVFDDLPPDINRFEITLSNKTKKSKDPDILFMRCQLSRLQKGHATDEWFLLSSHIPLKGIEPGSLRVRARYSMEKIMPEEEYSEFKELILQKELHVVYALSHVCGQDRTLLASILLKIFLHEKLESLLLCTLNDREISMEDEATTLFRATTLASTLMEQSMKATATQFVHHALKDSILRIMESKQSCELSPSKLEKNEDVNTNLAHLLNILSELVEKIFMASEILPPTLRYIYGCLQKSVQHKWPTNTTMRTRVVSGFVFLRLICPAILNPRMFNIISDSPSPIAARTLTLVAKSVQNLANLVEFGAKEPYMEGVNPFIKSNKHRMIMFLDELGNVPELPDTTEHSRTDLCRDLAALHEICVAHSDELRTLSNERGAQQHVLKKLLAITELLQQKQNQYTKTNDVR
Experimental: The activity of the synthetic peptides of the present invention, as inhibitors of the interaction of ras with GAP was determined in an assay which measures GAP dependent, Ras GTPase activity. Bovine GAP was either purified from fresh bovine brains or recombinantly produced in E. coli. It is understood that the methods of the present invention may utilize either the recombinant full length GAP or the bovine brain derived GAP. In addition, GAP from other species, such as human and mouse, may be substituted for bovine GAP since they share about 95% amino acid homology. […]
The Ras protein utilized in the Ras-GAP GTPase assay of the present invention is Harvey ras (Ha-ras). […] Furthermore, it is readily apparent to those skilled in the art that any form of Ras protein which is capable of interacting with GAP is suitable for use in the Ras-GAP GTPase assay.
Ras GTPase activity was measured by the charcoal adsorption procedure. […] GTPase activity was quantitated by measuring the free ³²P-orthophosphate in the cleared supernatant after centrifugation of the charcoal mix. […]
Ras peptides were dissolved in either 100% dimethyl formamide (DMF, American Burdick and Jackson) or 100% dimethyl sulfoxide (DMSO, Fluka UV-spectroscopy grade) at a calculated peptide concentration of 1-4 mM. […] Reactions were initiated upon addition of 5 µL of diluted GAP (10 fmol), and analyzed as described above.

Row | Compound | effect on intrinsic Ras GTPase activity [1] | other results
1 | SALTIQLIQNHFVDEYDPTIE [Ras 17-37] | did not effect | –
2 | MRTRVVSGFVFLRLIGPAILNPR [GAP 888-910(Gly903)] | – | IC50 ([2]; concentration of peptide required to reduce GAP stimulated Ras-GTP hydrolysis by 50%, 10 fmol GAP, 240 fmol Ha ras p21-GTP, 4 minutes at 24°C): 100 µM
3 | CC[C@H](C)[C@H](NC(=O)[C@H](CC(C)C)NC(=O)[C@H](CCC(N)=O)NC(=O)[C@@H](NC(=O)[C@@H](NC(=O)[C@H](CC(C)C)NC(=O)[C@H](C)NC(=O)[C@@H](N)CO)[C@@H](C)O)[C@@H](C)CC)C(=O)N[C@@H](CCC(N)=O)C(=O)N[C@@H](CC(N)=O)C(=O)N[C@@H](Cc1c[nH]cn1)C(=O)N[C@@H](Cc1ccccc1)C(=O)N[C@H](C(=O)N[C@@H](CC(=O)O)C(=O)N[C@@H](CCC(=O)O)C(=O)N[C@@H](Cc1ccc(O)cc1)C(=O)N[C@@H](CC(=O)O)C(=O)N1CCC[C@H]1C(=O)N[C@H](C(=O)N[C@H](C(=O)N[C@@H](CCC(=O)O)C(=O)N[C@@H](CC(=O)O)C(=O)N[C@@H](CO)C(=O)N[C@@H](Cc1ccc(O)cc1)C(=O)N[C@@H](CCCNC(=N)N)C(=O)N[C@@H](CCCCN)C(=O)N[C@@H](CCC(N)=O)C(=O)N[C@H](C(=O)O)C(C)C)[C@@H](C)CC)[C@@H](C)O)C(C)C [Ras 17-44] | did not effect | –
4 | EDIHQYREQIKRV [Ras 91-103, reference compound] | – | inhibitory activity in the Ras-GAP assay [2]: non-inhibitory
5 | CC[C@H](C)[C@H](NC(=O)[C@H](CC(C)C)NC(=O)[C@H](CCC(N)=O)NC(=O)[C@@H](NC(=O)[C@@H](NC(=O)[C@H](CC(C)C)NC(=O)[C@H](C)NC(=O)[C@@H](N)CO)[C@@H](C)O)[C@@H](C)CC)C(=O)N[C@@H](CCC(N)=O)C(=O)N[C@@H](CC(N)=O)C(=O)N[C@@H](Cc1c[nH]cn1)C(=O)N[C@@H](Cc1ccccc1)C(=O)N[C@H](C(=O)N[C@@H](CC(=O)O)C(=O)N[C@@H](CCC(=O)O)C(=O)N[C@@H](Cc1ccc(O)cc1)C(=O)O)C(C)C [Ras 17-32] | did not effect | –
